Measured values published in publication PMC9463452.
These are yes or no findings as the source states them, for the method shown. Binding seen in cells or lysates may run through a third protein. Some binding calls cover weakened binding; strength is not graded here. For part of these data: Sequences can lack the tags named with a protein.

T1: OTUD5, endogenous (human (endogenous in 253J and UM-UC-14)) (UniProt Q96G74)
T1 sequence: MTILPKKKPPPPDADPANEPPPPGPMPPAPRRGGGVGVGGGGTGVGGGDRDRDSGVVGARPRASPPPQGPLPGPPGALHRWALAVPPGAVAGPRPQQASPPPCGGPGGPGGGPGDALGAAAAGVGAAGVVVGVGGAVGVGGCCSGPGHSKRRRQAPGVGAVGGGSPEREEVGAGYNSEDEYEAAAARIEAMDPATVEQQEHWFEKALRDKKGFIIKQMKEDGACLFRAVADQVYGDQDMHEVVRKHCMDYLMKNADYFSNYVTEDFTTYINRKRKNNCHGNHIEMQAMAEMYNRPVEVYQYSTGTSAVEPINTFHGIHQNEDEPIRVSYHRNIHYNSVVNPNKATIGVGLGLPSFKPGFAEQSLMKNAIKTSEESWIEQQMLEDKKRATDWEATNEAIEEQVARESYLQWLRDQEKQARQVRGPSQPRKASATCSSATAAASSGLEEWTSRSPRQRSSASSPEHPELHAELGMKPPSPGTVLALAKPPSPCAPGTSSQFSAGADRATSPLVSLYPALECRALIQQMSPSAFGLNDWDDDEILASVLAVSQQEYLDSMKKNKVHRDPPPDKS

T2: GST-OTUD5 (UniProt Q96G74)
T2 sequence: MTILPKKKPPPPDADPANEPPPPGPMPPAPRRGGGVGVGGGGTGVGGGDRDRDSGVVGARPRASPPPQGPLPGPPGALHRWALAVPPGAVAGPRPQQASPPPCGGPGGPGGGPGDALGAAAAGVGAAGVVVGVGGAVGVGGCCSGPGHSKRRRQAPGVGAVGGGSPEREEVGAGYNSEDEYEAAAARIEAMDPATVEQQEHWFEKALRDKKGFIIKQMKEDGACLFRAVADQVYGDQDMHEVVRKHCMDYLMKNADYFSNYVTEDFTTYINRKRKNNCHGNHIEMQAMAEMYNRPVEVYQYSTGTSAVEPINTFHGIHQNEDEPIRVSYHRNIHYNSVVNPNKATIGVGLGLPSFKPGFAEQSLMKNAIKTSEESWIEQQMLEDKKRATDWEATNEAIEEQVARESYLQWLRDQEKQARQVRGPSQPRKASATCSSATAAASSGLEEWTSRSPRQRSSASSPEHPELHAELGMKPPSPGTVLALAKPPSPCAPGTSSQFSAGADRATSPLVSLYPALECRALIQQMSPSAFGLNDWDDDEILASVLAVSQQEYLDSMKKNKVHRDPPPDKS


Experiments:
[1] = biological target: T1, OTUD5, endogenous (human (endogenous in 253J and UM-UC-14)); test: co-IP; endogenous proteins in 253J and UM-UC-14 cells; IP with the antibody against OTUD5, Western blot with the antibody against RNF186
GST-OTUD5 = biological target: T2, GST-OTUD5; test: pull-down; GST pull-down with GST-OTUD5; bound HA-tagged protein detected by immunoblot with anti-HA; Coomassie blue staining of the purified proteins; only the target purified

binding [1] | binding (GST-OTUD5) | Binder
binds | – | RNF186, endogenous (enzyme, UniProt Q9NXI6 1-227) MACTKTLQQSQPISAGATTTTTAVAPAGGHSGSTECDLECLVCREPYSCPRLPKLLACQHAFCAICLKLLLCVQDNTWSITCPLCRKVTAVPGGLICSLRDHEAVVGQLAQPCTEVSLCPQGLVDPADLAAGHPSLVGEDGQDEVSANHVAARRLAAHLLLLALLIILIGPFIYPGVLRWVLTFIIALALLMSTLFCCLPSTRGSCWPSSRTLFCREQKHSHISSIA
– | binds | HA-RNF186 (ring finger protein 186) (enzyme, UniProt Q9NXI6 1-227) MACTKTLQQSQPISAGATTTTTAVAPAGGHSGSTECDLECLVCREPYSCPRLPKLLACQHAFCAICLKLLLCVQDNTWSITCPLCRKVTAVPGGLICSLRDHEAVVGQLAQPCTEVSLCPQGLVDPADLAAGHPSLVGEDGQDEVSANHVAARRLAAHLLLLALLIILIGPFIYPGVLRWVLTFIIALALLMSTLFCCLPSTRGSCWPSSRTLFCREQKHSHISSIA
– | no binding | HA-sestrin2 (protein, UniProt P58004 1-480) MIVADSECRAELKDYLRFAPGGVGDSGPGEEQRESRARRGPRGPSAFIPVEEVLREGAESLEQHLGLEALMSSGRVDNLAVVMGLHPDYFTSFWRLHYLLLHTDGPLASSWRHYIAIMAAARHQCSYLVGSHMAEFLQTGGDPEWLLGLHRAPEKLRKLSEINKLLAHRPWLITKEHIQALLKTGEHTWSLAELIQALVLLTHCHSLSSFVFGCGILPEGDADGSPAPQAPTPPSEQSSPPSRDPLNNSGGFESARDVEALMERMQQLQESLLRDEGTSQEEMESRFELEKSESLLVTPSADILEPSPHPDMLCFVEDPTFGYEDFTRRGAQAPPTFRAQDYTWEDHGYSLIQRLYPEGGQLLDEKFQAAYSLTYNTIAMHSGVDTSVLRRAIWNYIHCVFGIRYDDYDYGEVNQLLERNLKVYIKTVACYPEKTTRRMYNLFWRHFRHSEKVHVNLLLLEARMQAALLYALRAITRYMT
